Results deposited as PubChem BioAssay AID1259254 (NCATS, 2017).
Shown is an unselected part of about 59,000 deposited reagents. Of all reagents, about 1,550 (2.6%) were called active. 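G2 share is only a proxy for re-replication; each gene was hit by three separate siRNAs, and active genes were retested.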 Unmarked entries are inactive. The numbers tell different reagents against one gene apart. Not all columns of the deposit are shown. Reagent sequences are not shown. Not given: the amount of reagent.

Aim: 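Genome-wide screen for genes that prevent DNA re-replication in cancer cells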 (primary screen)
System: human HCT116 colorectal cancer cells
Reagents: single siRNA against human genes
Time to read-out: 3 days
Read-out: 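Nuclei stained with Hoechst and imaged; cell-cycle phase assigned by DNA content; G2 share scaled per plate, non-targeting siRNA 0%, GMNN siRNA 100%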
Direction: G2 robust z-score: higher = more G2 cells, more excess DNA replication
Hit rule: 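An siRNA counts as active if its G2 robust z-score lies at least 5 MADs above the screen median; here such calls match roughly 38% of GMNN control or more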

For GARIN1A #1 the deposit lists G2 robust z-score 0.537. With knock-down of GARIN1A #2, the screen gave G2 robust z-score 0.477. GARIN1A #3 scored G2 robust z-score 0.486. Knock-down of MAMSTR #1 resulted in: G2 robust z-score 1.99. With knock-down of MAMSTR #2 the results were G2 robust z-score -0.476. Knock-down of MAMSTR #3 came out at: G2 robust z-score 1.73.

For CTDP1 #1, the values are G2 robust z-score 2.97. Silencing of CTDP1 #2 resulted in: G2 robust z-score -1.17. Knock-down of CTDP1 #3 gave: G2 robust z-score 0.24. For NAPSA #1, the values are G2 robust z-score 0.293. After knock-down of NAPSA #2, the screen gave G2 robust z-score 0.268. Knock-down of NAPSA #3 gave: G2 robust z-score 0.201.

Knock-down of CLASP2 #1 resulted in: G2 robust z-score -0.777. After knock-down of CLASP2 #2, the record shows G2 robust z-score 3.65. Depletion of CLASP2 #3 resulted in: G2 robust z-score 1.19. Silencing of DOCK2 #1 came out at: G2 robust z-score 0.644. After knock-down of DOCK2 #2, the record shows G2 robust z-score -0.603. DOCK2 #3 gave G2 robust z-score -0.897.

Copied from the list.
NAPSA #3, G2 robust z-score: 0.201
CLASP2 #3, G2 robust z-score → 1.19
